In PubChem BioAssay AID2685 (National Center for Advancing Translational Sciences (NCATS), 2010):
The other results are listed elsewhere or left out. Shown are side measurements of this screen, not its main read-out; they come without a call. The list favours compounds with an active or inconclusive main result. Words in brackets tell the shape of the fitted curve; partial curves, single points and poor fits give uncertain potencies.

Assay: qHTS Assay for Lipid Storage Modulators in Drosophila S3 Cells;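 on cell number change: cells counted by Cell Tracker Red CMTPX staining in the red channel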
Conditions: BODIPY lipid droplet fluorescence, 18-24 h; for cell number change: measured here: cell count max response, cells fed with added oleic acid
How it was run: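 Drosophila S3 cells got compounds at several concentrations plus oleic acid (400 uM solution). Laser-scanning cytometry with 488 nm excitation read lipid droplets at 500-530 nm and cells at 575-640 nm. Percent activity was relative to 20 uM Triacsin C.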

[1] = measured here: lipid fluorescence (Fed channel) AC50, cells fed with added oleic acid
[2] = measured here: cell number channel AC50, cells fed with added oleic acid

SMILES | AC50 [1] | cell number change | AC50 [2]
O=C(O)C1C2C=CC(O2)C1C(=O)Nc1ccc(S(=O)(=O)Nc2ccccc2)cc1 (stereo unspecified) | 0.116 µM [falling, full curve, poor fit] | – | –
COc1cc(-c2cc(N)n(S(=O)(=O)c3ccc(F)cc3)n2)cc(OC)c1OC | 32.6 µM [falling, single point] | -32.6% | 29.1 µM [falling, single point]
CC1=C(C(=O)Nc2ccc(C(=O)NCCC(C)C)cc2)SCCO1 | 0.651 µM [falling, full curve] | 34.5% | 20.6 µM [rising, single point]
CC(=O)c1cn(N(C)c2ncc(C(F)(F)F)cc2Cl)c(=O)[nH]c1=O | – | -12.3% | –
S=C(Nc1ccc(Cl)c(Cl)c1)N1CCCC1 | – | -25.5% | –
CC1CC(C)CN(CCCNC(=O)c2ccc3c(c2)ncn3C2CCCC2)C1 (stereo unspecified) | 0.13 µM [falling, full curve, poor fit] | -10.4% | –
O=C(Nc1nc(-c2cc(F)ccc2F)cs1)c1cccc(N2C(=O)CCC2=O)c1 | 20.6 µM [falling, partial curve] | -11.5% | –
COc1ccc(/C=N\NC(=O)c2ccccc2Br)cc1COc1c(F)c(F)cc(F)c1F | 0.58 µM [rising, single point] | -30.2% | 29.1 µM [falling, single point]
O=C(COc1ccc(Br)cc1)N(Cc1ccccc1)c1ccccn1 | – | 6.61% | –
Cc1cc(N/N=C/c2c(O)ccc3ccccc23)nc(-c2ccccc2O)n1 | 1.16 µM [falling, single point] | -16.5% | –
Cc1cc(NC(=O)Nc2ccccc2F)ccc1Br | 29.1 µM [falling, single point] | -10.7% | –
Cc1ccc(NC(=O)CS(=O)(=O)c2cn(C)c3ccccc23)c(C)c1 | 0.0206 µM [rising, full curve, poor fit] | 1.99% | –
O=C(NCc1ccc(F)cc1)NC(=O)c1ccc(Cl)cc1 | 11.6 µM [rising, single point] | 19.5% | –
O=C(CC(c1ccc(F)cc1)c1ccco1)N1CCOCC1 (stereo unspecified) | 0.651 µM [rising, single point] | -6.92% | –
Cc1ccc(NC(=O)c2ccc(CSc3nnc(-c4ccncc4)n3C)cc2)cc1 | – | 18.1% | –
COc1ccccc1N1CCN(C(=O)c2cccc(S(=O)(=O)N3CCCCCC3)c2)CC1 | – | 11.1% | –
COc1nc(Nc2ccc([N+](=O)[O-])cc2)nc(NC(C)C)n1 | 6.51 µM [falling, single point] | -3.43% | –
CCCC(/C=C/c1ccc(OC(C)=O)cc1)=C1/c2ccccc2C(=O)N1c1ccccc1 | – | -17.4% | 0.82 µM [falling, single point]
O=C(CCSc1ccccc1)NNC(=O)c1ccccc1F | 20.6 µM [rising, partial curve, poor fit] | 7.19% | 6.51 µM [falling, single point]
O=C(Nc1nccs1)c1ccc(-c2ccc([N+](=O)[O-])cc2)o1 | – | 7.22% | –
O=C(CCn1cnc2ccccc21)N=Nc1c(O)[nH]c2ccccc12 | 1.84 µM [rising, partial curve] | 3.98% | –

SMILES | AC50 [1] | cell number change | AC50 [2]
CCCN(CCC)CC(=O)Nc1cccc2c1OCO2 | – | 30.4% | 0.184 µM [rising, full curve, poor fit]
CCOC(=O)N1CCN(C(=O)CN(c2cccc(C)c2)S(=O)(=O)c2ccccc2)CC1 | 0.0517 µM [rising, full curve] | 4.17% | –
O=C(Nc1ccc(Br)cc1)c1ccc(F)c(S(=O)(=O)NCc2cccs2)c1 | – | -13.8% | –
NC(=O)CCC(C(=O)O)N1C(=O)c2ccc(O)cc2C1=O (stereo unspecified) | 32.6 µM [falling, partial curve, poor fit] | -41.4% | 7.31 µM [falling, full curve, poor fit]
CCOc1ccccc1Oc1c(C)oc2cc(OC(=O)N3CCOCC3)ccc2c1=O | – | -12.5% | –
O=C(Nc1ccc(OCc2ccccc2Cl)cc1)c1cccnc1 | 0.731 µM [rising, full curve] | -24.5% | –
O=C1CC(N2CCC(c3nc4ccccc4[nH]3)CC2)C(=O)N1Cc1ccccc1 (stereo unspecified) | 0.231 µM [falling, full curve] | -27.7% | 0.517 µM [falling, full curve, poor fit]
CCOc1cc(Br)ccc1S(=O)(=O)NCc1ccccc1 | 13 µM [falling, partial curve] | 0.269% | 5.17 µM [falling, single point]
O=C(CSc1nnc(-c2ccccn2)o1)Nc1ccccc1C(F)(F)F | – | -16.2% | –
Cc1ccc(S(=O)(=O)NC(N)=NCCc2ccc(Cl)cc2)cc1C | – | -50% | 23.1 µM [falling, single point]
O=C(CCl)Nc1cccc(S(=O)(=O)N2CCCCCC2)c1 | 20.6 µM [falling, partial curve] | -41% | 20.6 µM [falling, single point]
CCCCn1c(N)c(N(CC(C)C)C(=O)C2CC(=O)N(c3ccc(C)cc3)C2)c(=O)[nH]c1=O (stereo unspecified) | – | 3.1% | –
Cc1csc(CN(C)C(=O)CC2C(=O)NCCN2Cc2ccc(F)cc2Cl)n1 (stereo unspecified) | 0.58 µM [rising, single point] | -10.2% | –
Cc1ccccc1Cn1c(CN2CCN(C(=O)c3ccco3)CC2)nc2c1c(=O)n(C)c(=O)n2C | 18.4 µM [rising, partial curve] | 38.8% | 23.1 µM [rising, single point]
COc1ccc(C=O)cc1C1=CC(=O)C[C@H](c2ccc(Cl)cc2)C1 | – | 1.6% | 4.61 µM [falling, single point]
O=C(O)c1ccc(-n2nncc2-c2ccccc2)cc1 | 3.66 µM [falling, full curve, poor fit] | 16.1% | –
CC(C)C[C@H](NC(=O)N1CCn2c1nc1ccccc12)C(=O)N[C@@H](C(=O)O)c1ccccc1 | – | 8.09% | –
COC(=O)CNc1c(-c2ccccc2)nc2ccc(Br)cn12 | – | -12.3% | –
Cn1cnc2c1c(=O)n(Cc1ccc(Cl)cc1Cl)c(=O)n2C | 0.116 µM [falling, partial curve, poor fit] | 6.16% | –
COC(=O)c1ccc(C(=O)OC)c(NC(=S)N2CCCC(CO)C2)c1 (stereo unspecified) | 29.1 µM [rising, single point] | 42.4% | –
CC(C)(C)c1ccc(C(=O)OCCNC(=O)c2c(Cl)nc3ccccn23)cc1 | – | 0.804% | 2.59 µM [rising, partial curve]

SMILES | AC50 [1] | cell number change | AC50 [2]
CN(CCc1nc2ccccc2[nH]1)Cc1nc(CC2CC2)no1 | 0.326 µM [falling, full curve] | -32.5% | 0.92 µM [falling, full curve, poor fit]
CCCCn1c(-c2ccccc2C)nc2cc3[nH]c(=O)c(C(C)C)nc3cc21 | – | -30.8% | 29.1 µM [falling, single point]
CC1CCN(c2nc3ccccc3n2CC(=O)c2ccccc2)CC1 | 4.11 µM [rising, partial curve] | – | –
CCC1(CC)NC(=O)N(CC(=O)N2N=C(c3ccc(Cl)cc3)CC2c2ccco2)C1=O (stereo unspecified) | – | 4.21% | –
CCOC(=O)C1CCN(S(=O)(=O)c2c(C(=O)N3CCCCC3)c(C)n(C)c2C)CC1 | 29.1 µM [rising, single point] | -15.3% | –
Cc1cc(=O)n2[nH]c(SCc3ccccc3Cl)nc2n1 | 6.51 µM [rising, single point] | – | –
COc1c(Cl)cccc1-c1cn2ccc(C)cc2n1 | 0.0291 µM [rising, full curve, poor fit] | 12% | –
COc1ccc2[nH]c(C(=O)O)c(NS(=O)(=O)c3ccc(Cl)s3)c2c1 | – | 2.83% | 0.517 µM [falling, single point]
O=C(COc1ccc2c3c(c(=O)oc2c1)CCCC3)NCc1ccncc1 | 10.3 µM [rising, partial curve] | 26.5% | 6.51 µM [rising, single point]
CCN(CC(=O)Nc1ccccc1C(F)(F)F)C(=O)c1cc(S(=O)(=O)N(C)C)ccc1N1CCCC1 | – | 1.84% | –
Cc1cc(C)n2c(SCc3ccc(Br)cc3)nnc2n1 | – | -6.78% | –
O=C(O)c1ccc(NS(=O)(=O)c2cc(Cl)ccc2Cl)cc1O | 16.4 µM [falling, partial curve] | -38% | 0.103 µM [falling, full curve, poor fit]
CCOCC(=O)NCc1ccc2c(c1)cc(C)n2C | – | 1.44% | –
O=c1c2c3c(sc2n2cnnc2n1-c1ccccc1)N(Cc1ccccc1)CCC3 | – | -5.98% | –
COC(=O)C1=C(CS(=O)(=O)c2ccccc2)NC(=O)NC1c1ccc(OC)c(OC)c1 (stereo unspecified) | 29.1 µM [rising, single point] | 4.48% | –
O=C(c1ccc(N2C(=O)C3C4c5ccccc5C(c5ccccc54)C3C2=O)cc1)N1CCOCC1 (stereo unspecified) | 0.0058 µM [falling, full curve, poor fit] | -20% | –
Cc1ccc(OC(C)C(=O)Nc2ccncc2)cc1 (stereo unspecified) | 29.1 µM [falling, single point] | 2.07% | –
COc1ccc(C(=O)/C=C/c2ccc(OC3CSC3)cc2)cc1 | 23.1 µM [rising, single point] | 6.04% | –
Clc1cccc2sc(N3CCCC3)nc12 | – | – | 0.0731 µM [falling, partial curve, poor fit]
O=C(NCCCl)c1ccc(OCc2ccccc2)cc1Cl | – | -17.1% | –
CC(NC(=S)Nc1ccccc1C(F)(F)F)C1CC2CCC1C2 (stereo unspecified) | 4.11 µM [falling, single point] | 12.8% | –
